No constants are given. Whether binding was seen depends on the method and setting. Some results given as binding are weak or reduced against the parent protein; the word gives no strength.

Sequences of proteins named here, by UniProt entry; tags and fusion partners are left off. Residues count along the entry.
UniProt P02769, residues 25-607: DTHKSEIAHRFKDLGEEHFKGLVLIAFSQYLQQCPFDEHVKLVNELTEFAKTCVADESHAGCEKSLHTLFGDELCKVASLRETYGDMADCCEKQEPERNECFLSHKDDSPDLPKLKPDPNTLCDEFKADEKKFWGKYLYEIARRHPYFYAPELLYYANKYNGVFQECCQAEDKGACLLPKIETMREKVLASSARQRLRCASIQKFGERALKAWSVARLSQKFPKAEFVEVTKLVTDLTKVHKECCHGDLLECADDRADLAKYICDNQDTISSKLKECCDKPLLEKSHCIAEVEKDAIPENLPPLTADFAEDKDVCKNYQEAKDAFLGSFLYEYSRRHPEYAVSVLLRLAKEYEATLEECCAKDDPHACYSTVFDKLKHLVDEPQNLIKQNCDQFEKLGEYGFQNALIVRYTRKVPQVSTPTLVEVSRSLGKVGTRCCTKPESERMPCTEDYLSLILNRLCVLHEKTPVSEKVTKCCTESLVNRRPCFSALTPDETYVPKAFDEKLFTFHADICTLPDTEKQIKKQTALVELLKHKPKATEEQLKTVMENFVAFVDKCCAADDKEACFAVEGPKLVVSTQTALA

The target of the experiment is BSA-RhB conjugate (bovine) (UniProt P02769). As to the kind of experiment: zeta potential and DLS of peptide/protein mixtures at molar ratios 1 to 25.

As to KKLFKKILKYLKHKHKHKHKHKHKHKHKH [BP100(KH)9], the binding result is reported as “binds”.

For the origin of these results see US20200318125A1.
